Measurements reported in US12521402B2, “Biomarker and drug combinations for heart failure prediction” (Endothelium Scanning Nanotechnology Limited, priority 2022, dated 2026).

Experiment: Saliva proteomics: biomarker quantification by mass spectrometry SWATH in participants at risk of heart failure vs controls
Design: species or system human
Conditions: for AtRisk average: 'at risk' of heart failure group mean; for AtRisk average / Control average: mass spectrometry SWATH quantification; for Control average: control group mean
[1] = differential expression (fold) control vs 'at risk' group, saliva
[2] = differential expression (fold) control vs 'at risk', printed as larger/smaller average whatever the direction

Molecule	Control vs Risk [1]	AtRisk average (saliva, 20 samples)	Control average (saliva, 20 samples)	Control vs Risk [2]	AtRisk average (saliva)	Control average (saliva)
PDZ11 (protein, UniProt Q5EBL8 1-140, looked up) PDZ domain-containing protein …: MDSRIPYDDYPVVFLPAYENPPAWIPPHERVHHPDYNNELTQFLPRTITLKKPPGAQLGFNIRGGKASQLGIFISKVIPDSDAHRAGLQEGDQVLAVNDVDFQDIEHSKAVEILKTAREISMRVRFFPYNYHRQKERTVH	2.31	35,866 ng/ml	82,727 ng/ml	–	–	–
RASF2 (protein, UniProt P50749 1-326, looked up) Ras association …: MDYSHQTSLVPCGQDKYISKNELLLHLKTYNLYYEGQNLQLRHREEEDEFIVEGLLNISWGLRRPIRLQMQDDNERIRPPPSSSSWHSGCNLGAQGTTLKPLTVPKVQISEVDAPPEGDQMPSSTDSRGLKPLQEDTPQLMRTRSDVGVRRRGNVRTPSDQRRIRRHRFSINGHFYNHKTSVFTPAYGSVTNVRINSTMTTPQVLKLLLNKFKIENSAEEFALYVVHTSGEKQKLKATDYPLIARILQGPCEQISKVFLMEKDQVEEVTYDVAQYIKFEMPVLKSFIQKLQEEEDREVKKLMRKYTVLRLMIRQRLEEIAETPATI	–	–	–	2.52	64,961 ng/ml	25,756 ng/ml
CYTB (protein, UniProt P04080 1-98, looked up) Cystatin-B: MMCGAPSATQPATAETQHIADQVRSQLEEKENKKFPVFKAVSFKSQVVAGTNYFIKVHVGDEDFVHLRVFQSLPHENKPLTLSNYQTNKAKHDELTYF	2.46	57,505,633 ng/ml	23,329,698 ng/ml	–	–	–
GALT5 (protein, UniProt Q7Z7M9 1-940, looked up) Polypeptide …: MNRIRKFFRGSGRVLAFIFVASVIWLLFDMAALRLSFSEINTRVIKEDIVRRERIGFRVQPDQGKIFYSSIKEMKPPLRGHGKGAWGKENVRKTEESVLKVEVDLDQTQRERKMQNALGRGKVVPLWHPAHLQTLPVTPNKQKTDGRGTKPEASSHQGTPKQTTAQGAPKTSFIAAKGTQVVKISVHMGRVSLKQEPRKSHSPSSDTSKLAAERDLNVTISLSTDRPKQRSQAVANERAHPASTAVPKSGEAMALNKTKTQSKEVNANKHKANTSLPFPKFTVNSNRLRKQSINETPLGSLSKDDGARGAHGKKLNFSESHLVIITKEEEQKADPKEVSNSKTKTIFPKVLGKSQSKHISRNRSEMSSSSLAPHRVPLSQTNHALTGGLEPAKINITAKAPSTEYNQSHIKALLPEDSGTHQVLRIDVTLSPRDPKAPGQFGRPVVVPHGKEKEAERRWKEGNFNVYLSDLIPVDRAIEDTRPAGCAEQLVHNNLPTTSVIMCFVDEVWSTLLRSVHSVINRSPPHLIKEILLVDDFSTKDYLKDNLDKYMSQFPKVRILRLKERHGLIRARLAGAQNATGDVLTFLDSHVECNVGWLEPLLERVYLSRKKVACPVIEVINDKDMSYMTVDNFQRGIFVWPMNFGWRTIPPDVIAKNRIKETDTIRCPVMAGGLFSIDKSYFFELGTYDPGLDVWGGENMELSFKVWMCGGEIEIIPCSRVGHIFRNDNPYSFPKDRMKTVERNLVRVAEVWLDEYKELFYGHGDHLIDQGLDVGNLTQQRELRKKLKCKSFKWYLENVFPDLRAPIVRASGVLINVALGKCISIENTTVILEDCDGSKELQQFNYTWLRLIKCGEWCIAPIPDKGAVRLHPCDNRNKGLKWLHKSTSVFHPELVNHIVFENNQQLLCLEGNFSQKILKVAACDPVKPYQKWKFEKYYEA	–	–	–	9.75	17,606 ng/ml	171,663 ng/ml
PADI3 (protein, UniProt Q9ULW8 1-664, looked up) Protein-arginine deiminase …: MSLQRIVRVSLEHPTSAVCVAGVETLVDIYGSVPEGTEMFEVYGTPGVDIYISPNMERGRERADTRRWRFDATLEIIVVMNSPSNDLNDSHVQISYHSSHEPLPLAYAVLYLTCVDISLDCDLNCEGRQDRNFVDKRQWVWGPSGYGGILLVNCDRDDPSCDVQDNCDQHVHCLQDLEDMSVMVLRTQGPAALFDDHKLVLHTSSYDAKRAQVFHICGPEDVCEAYRHVLGQDKVSYEVPRLHGDEERFFVEGLSFPDAGFTGLISFHVTLLDDSNEDFSASPIFTDTVVFRVAPWIMTPSTLPPLEVYVCRVRNNTCFVDAVAELARKAGCKLTICPQAENRNDRWIQDEMELGYVQAPHKTLPVVFDSPRNGELQDFPYKRILGPDFGYVTREPRDRSVSGLDSFGNLEVSPPVVANGKEYPLGRILIGGNLPGSSGRRVTQVVRDFLHAQKVQPPVELFVDWLAVGHVDEFLSFVPAPDGKGFRMLLASPGACFKLFQEKQKCGHGRALLFQGVVDDEQVKTISINQVLSNKDLINYNKFVQSCIDWNREVLKRELGLAECDIIDIPQLFKTERKKATAFFPDLVNMLVLGKHLGIPKPFGPIINGCCCLEEKVRSLLEPLGLHCTFIDDFTPYHMLHGEVHCGTNVCRKPFSFKWWNMVP	2.50	100,865 ng/ml	251,948 ng/ml	–	–	–
I36RA (protein, UniProt Q9UBH0 2-155, looked up) Interleukin-36 receptor …: VLSGALCFRMKDSALKVLYLHNNQLLAGGLHAGKVIKGEEISVVPNRWLDASLSPVILGVQGGSQCLSCGVGQEPTLTLEPVNIMELYLGAKESKSFTFYRRDMGLTSSFESAAYPGWFLCTVPEADQPVRLTQLPENGGWNAPITDFYFQQCD	–	–	–	2.73	260,231 ng/ml	95,212 ng/ml
MGP (protein, UniProt P08493 20-96, looked up) Matrix Gla protein: YESHESMESYELNPFINRRNANTFISPQQRWRAKVQERIRERSKPVHELNREACDDYRLCERYAMVYGYNAAYNRYF	–	–	–	2.60	799,600 ng/ml	307,281 ng/ml
HEP2 (protein, UniProt P05546 20-499, looked up) Heparin cofactor 2: GSKGPLDQLEKGGETAQSADPQWEQLNNKNLSMPLLPADFHKENTVTNDWIPEGEEDDDYLDLEKIFSEDDDYIDIVDSLSVSPTDSDVSAGNILQLFHGKSRIQRLNILNAKFAFNLYRVLKDQVNTFDNIFIAPVGISTAMGMISLGLKGETHEQVHSILHFKDFVNASSKYEITTIHNLFRKLTHRLFRRNFGYTLRSVNDLYIQKQFPILLDFKTKVREYYFAEAQIADFSDPAFISKTNNHIMKLTKGLIKDALENIDPATQMMILNCIYFKGSWVNKFPVEMTHNHNFRLNEREVVKVSMMQTKGNFLAANDQELDCDILQLEYVGGISMLIVVPHKMSGMKTLEAQLTPRVVERWQKSMTNRTREVLLPKFKLEKNYNLVESLKLMGIRMLFDKNGNMAGISDQRIAIDLFKHQGTITVNEEGTQATTVTTVGFMPLSTQVRFTVDRPFLFLIYEHRTSCLLFMGRVANPSRS	2.42	326,072 ng/ml	788,214 ng/ml	–	–	–
SAA1 (protein, UniProt P0DJI8 19-122, looked up) Serum amyloid A-1 protein: RSFFSFLGEAFDGARDMWRAYSDMREANYIGSDKYFHARGNYDAAKRGPGGAWAAEVITDARENIQRFFGHGAEDSLADQAANEWGRSGKDPNHFRPAGLPEKY	2.30	1,812,419 ng/ml	788,909 ng/ml	–	–	–
LV321 (protein, UniProt P80748 18-117, looked up) Immunoglobulin lambda …: VTSYVLTQPPSVSVAPGQTARITCGGNNIGSKSVHWYQQKPGQAPVLVVYDDSDRPSGIPERFSGSNSGNTATLTISRVEAGDEADYYCQVWDSSSDHPT	2.27	210,897 ng/ml	479,593 ng/ml	–	–	–
ECI1 (protein, UniProt P42126 42-302, looked up) Enoyl-CoA delta isomerase 1, …: FGSQRVLVEPDAGAGVAVMKFKNPPVNSLSLEFLTELVISLEKLENDKSFRGVILTSDRPGVFSAGLDLTEMCGRSPAHYAGYWKAVQELWLRLYQSNLVLVSAINGACPAGGCLVALTCDYRILADNPRYCIGLNETQLGIIAPFWLKDTLENTIGHRAAERALQLGLLFPPAEALQVGIVDQVVPEEQVQSTALSAIAQWMAIPDHARQLTKAMMRKATASRLVTQRDADVQNFVSFISKDSIQKSLQMYLERLKEEKG	–	–	–	2.55	46,141 ng/ml	117,742 ng/ml
FCL (protein, UniProt Q13630 1-321, looked up) GDP-L-fucose synthase: MGEPQGSMRILVTGGSGLVGKAIQKVVADGAGLPGEDWVFVSSKDADLTDTAQTRALFEKVQPTHVIHLAAMVGGLFRNIKYNLDFWRKNVHMNDNVLHSAFEVGARKVVSCLSTCIFPDKTTYPIDETMIHNGPPHNSNFGYSYAKRMIDVQNRAYFQQYGCTFTAVIPTNVFGPHDNFNIEDGHVLPGLIHKVHLAKSSGSALTVWGTGNPRRQFIYSLDLAQLFIWVLREYNEVEPIILSVGEEDEVSIKEAAEAVVEAMDFHGEVTFDTTKSDGQFKKTASNSKLRTYLPDFRFTPFKQAVKETCAWFTDNYEQARK	–	–	–	2.70	100,529 ng/ml	37,272 ng/ml
TWF2 (protein, UniProt Q6IBS0 2-349, looked up) Twinfilin-2: AHQTGIHATEELKEFFAKARAGSVRLIKVVIEDEQLVLGASQEPVGRWDQDYDRAVLPLLDAQQPCYLLYRLDSQNAQGFEWLFLAWSPDNSPVRLKMLYAATRATVKKEFGGGHIKDELFGTVKDDLSFAGYQKHLSSCAAPAPLTSAERELQQIRINEVKTEISVESKHQTLQGLAFPLQPEAQRALQQLKQKMVNYIQMKLDLERETIELVHTEPTDVAQLPSRVPRDAARYHFFLYKHTHEGDPLESVVFIYSMPGYKCSIKERMLYSSCKSRLLDSVEQDFHLEIAKKIEIGDGAELTAEFLYDEVHPKQHAFKQAFAKPKGPGGKRGHKRLIRGPGENGDDS	2.40	72,008 ng/ml	172,789 ng/ml	–	–	–
IGA2 (protein, UniProt P01877 1-391, looked up) Immunoglobulin heavy constant …: ASPTSPKVFPLSLDSTPQDGNVVVACLVQGFFPQEPLSVTWSESGQNVTARNFPPSQDASGDLYTTSSQLTLPATQCPDGKSVTCHVKHYTNSSQDVTVPCRVPPPPPCCHPRLSLHRPALEDLLLGSEANLTCTLTGLRDASGATFTWTPSSGKSAVQGPPERDLCGCYSVSSVLPGCAQPWNHGETFTCTAAHPELKTPLTANITKSGNTFRPEVHLLPPPSEELALNELVTLTCLARGFSPKDVLVRWLQGSQELPREKYLTWASRQEPSQGTTTYAVTSILRVAAEDWKKGETFSCMVGHEALPLAFTQKTIDRMAGSCCVADWQMPPPYVVLDLPQETLEEETPGANLWPTTITFLTLFLLSLFYSTALTVTSVRGPSGKREGPQY	2.28	94,850,425 ng/ml	216,137,561 ng/ml	–	–	–
FM25G (protein, UniProt B3EWG6 1-89, looked up) Protein FAM25G: MLGGLGKLAAEGLAHRTEKATEGAIHAVEEVVKEVVGHAKETGEKAIAEAIKKAQESGDKKMKEITETVTNTVTNAITHAAESLDKLGQ	2.36	2,006,327 ng/ml	848,646 ng/ml	–	–	–
